Data from patent US8119681B2, “2-[1-phenyl-5-hydroxy or methoxy-4alpha-methyl-hexahydrocyclopenta [ƒ]indazole-5-YL]ethyl phenyl derivatives as glucocorticoid receptor ligands” (Merck Sharp & Dohme Corp., priority 2006, dated 2012).
Some entries share one result that the patent states for a list of compounds. For part of these data: At least one compound was matched to its structure with a doubt left.

What was measured:
human GR = target: T1, human GR (Homo sapiens, UniProt P04150); assay: Trans-Activation Modulation of Glucocorticoid Receptor (GRAMMER), MMTV-LUC reporter gene; assay type: cell-based; set-up: endogenous in cells; conditions: GRAMMER versus GITAR
T1 sequence (P04150 1-777): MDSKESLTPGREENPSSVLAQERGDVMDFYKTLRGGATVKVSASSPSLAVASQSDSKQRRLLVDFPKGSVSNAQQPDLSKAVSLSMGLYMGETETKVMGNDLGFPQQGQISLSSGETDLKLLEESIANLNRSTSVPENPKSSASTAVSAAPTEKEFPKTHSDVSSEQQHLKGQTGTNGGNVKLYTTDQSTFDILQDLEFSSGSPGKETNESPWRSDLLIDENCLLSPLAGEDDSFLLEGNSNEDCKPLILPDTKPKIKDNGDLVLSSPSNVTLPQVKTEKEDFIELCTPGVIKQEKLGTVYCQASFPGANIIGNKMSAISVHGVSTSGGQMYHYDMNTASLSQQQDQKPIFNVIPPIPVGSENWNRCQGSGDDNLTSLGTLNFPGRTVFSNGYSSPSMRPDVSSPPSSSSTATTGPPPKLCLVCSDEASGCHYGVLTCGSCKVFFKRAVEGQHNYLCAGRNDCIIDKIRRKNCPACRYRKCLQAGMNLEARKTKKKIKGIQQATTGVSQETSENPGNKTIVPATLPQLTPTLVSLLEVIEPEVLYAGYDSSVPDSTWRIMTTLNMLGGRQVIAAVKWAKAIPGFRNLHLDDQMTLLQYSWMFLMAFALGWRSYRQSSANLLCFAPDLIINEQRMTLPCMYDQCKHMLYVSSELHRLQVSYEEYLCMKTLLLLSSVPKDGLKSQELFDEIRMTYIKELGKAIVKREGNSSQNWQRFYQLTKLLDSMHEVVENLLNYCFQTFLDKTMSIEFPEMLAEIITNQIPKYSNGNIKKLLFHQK

[1] = target: T2, glucocorticoid receptor (GR) (Homo sapiens, UniProt P04150); assay: Ligand binding assay (GR BIND), 3H-dexamethasone displacement, HeLa cell lysate; conditions: calculated using DEX as a reference
T2 construct: endogenous in cells; host or cells: HeLa (ATCC) cell lysate supernatant
T2 sequence (P04150 1-777): T1 sequence (P04150 1-777)
How it was run: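 HeLa cell lysate supernatant in TEGM (pH 7.2, molybdate) incubated overnight at 4 °C with 3H-dexamethasone trace (6 nM stock) and serially diluted compound, 2% EtOH final. Bound receptor captured on hydroxylapatite, filtered and counted by scintillation; IC50 calculated with dexamethasone as reference.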

SMILES: C[C@]12Cc3cnn(-c4ccc(F)cc4)c3C=C1CC[C@@]2(O)CCc1cc(F)ccc1CC(N)=O [Example 193, 2-(4-fluoro-2-{2-[(4αS,5R)-1-(4-fluorophenyl)-5-hydroxy-4α-methyl-1,4,4α,5,6,7-hexahydrocyclopenta[f]indazol-5-yl]ethyl}phenyl)acetamide]
- maximal transactivation activity compared with maximal transrepression activity (human GR): maximal transactivation activity less then maximal transrepression activity
- IC50 [1]: < 1000 nM

SMILES: CNC(=O)C(C)(C)NC(=O)c1ccccc1CC[C@]1(O)CCC2=Cc3c(cnn3-c3ccc(F)cc3)C[C@@]21C [Example 75, N-[1,1-dimethyl-2-(methylamino)-2-oxoethyl]-2-{2-[(4αS,5R)-1-(4-fluorophenyl)-5-hydroxy-4α-methyl-1,4,4α,5,6,7-hexahydrocyclopenta[f]indazol-5-yl]ethyl}benzamide]
- maximal transactivation activity compared with maximal transrepression activity (human GR): maximal transactivation activity less then maximal transrepression activity
- IC50 [1]: < 1000 nM

SMILES: CNS(=O)(=O)c1ccccc1CC[C@]1(O)CCC2=Cc3c(cnn3-c3ccc(F)cc3)C[C@@]21C [Example 139, 2-{2-[(4αS,5R)-1-(4-fluorophenyl)-5-hydroxy-4α-methyl-1,4,4α,5,6,7-hexahydrocyclopenta[f]indazol-5-yl]ethyl}-N-methylbenzenesulfonamide]
- maximal transactivation activity compared with maximal transrepression activity (human GR): maximal transactivation activity less then maximal transrepression activity
- IC50 [1]: < 1000 nM

SMILES: CC(C)C(O)(C(N)=O)c1ccccc1CC[C@]1(O)CCC2=Cc3c(cnn3-c3ccc(F)cc3)C[C@@]21C (stereo partly drawn) [Example 201, 2-(2-{2-[(4αS,5R)-1-(4-fluorophenyl)-5-hydroxy-4α-methyl-1,4,4α,5,6,7-hexahydrocyclopenta[f]indazol-5-yl]ethyl}phenyl)-2-hydroxy-3-methylbutanamide]
- maximal transactivation activity compared with maximal transrepression activity (human GR): maximal transactivation activity less then maximal transrepression activity
- IC50 [1]: < 1000 nM

SMILES: C[C@]12Cc3cnn(-c4ccc(F)cc4)c3C=C1CC[C@@]2(O)CCc1ccccc1C#N [Example 20, 2-{2-[(4αS,5R)-1-(4-fluorophenyl)-5-hydroxy-4α-methyl-1,4,4α,5,6,7-hexahydrocyclopenta[f]indazol-5-yl]ethyl}benzonitrile]
- maximal transactivation activity compared with maximal transrepression activity (human GR): maximal transactivation activity less then maximal transrepression activity
- IC50 [1]: < 1000 nM

SMILES: C[C@]12Cc3cnn(-c4ccc(F)cc4)c3C=C1CC[C@@]2(O)CCc1cc(F)ccc1C#N [Example 146, 4-fluoro-2-{2-[(4αS,5R)-1-(4-fluorophenyl)-5-hydroxy-4α-methyl-1,4,4α,5,6,7-hexahydrocyclopenta[f]indazol-5-yl]ethyl}benzonitrile]
- maximal transactivation activity compared with maximal transrepression activity (human GR): maximal transactivation activity less then maximal transrepression activity
- IC50 [1]: < 1000 nM

SMILES: COC(=O)Oc1ccccc1CC[C@]1(O)CCC2=Cc3c(cnn3-c3ccc(F)cc3)C[C@@]21C [Example 135, 2-{2-[(4αS,5R)-1-(4-fluorophenyl)-5-hydroxy-4α-methyl-1,4,4α,5,6,7-hexahydrocyclopenta[f]indazol-5-yl]ethyl}phenyl methyl carbonate]
- maximal transactivation activity compared with maximal transrepression activity (human GR): maximal transactivation activity less then maximal transrepression activity
- IC50 [1]: < 1000 nM

SMILES: C[C@]12Cc3cnn(-c4ccc(F)cc4)c3C=C1CC[C@@]2(O)CCc1cccc(F)c1NS(=O)(=O)CC(F)(F)F [Example 116, 2,2,2-trifluoro-N-(2-fluoro-6-{2-[(4αS,5R)-1-(4-fluorophenyl)-5-hydroxy-4α-methyl-1,4,4α,5,6,7-hexahydrocyclopenta[f]indazol-5-yl]ethyl}phenyl)ethanesulfonamide]
- maximal transactivation activity compared with maximal transrepression activity (human GR): maximal transactivation activity less then maximal transrepression activity
- IC50 [1]: < 1000 nM

SMILES: C[C@]12Cc3cnn(-c4ccc(F)cc4)c3C=C1CC[C@@]2(O)CCc1ccc(-c2ccccc2)cc1C(N)=O [Example 190, 4-{2-[(4αS,5R)-1-(4-fluorophenyl)-5-hydroxy-4α-methyl-1,4,4α,5,6,7-hexahydrocyclopenta[f]indazol-5-yl]ethyl}biphenyl-3-carboxamide]
- maximal transactivation activity compared with maximal transrepression activity (human GR): maximal transactivation activity less then maximal transrepression activity
- IC50 [1]: < 1000 nM

SMILES: C[C@]12Cc3cnn(-c4ccc(F)cc4)c3C=C1CC[C@@]2(O)CCc1cccc(F)c1C=O [Example 154, 2-fluoro-6-{2-[(4αS,5R)-1-(4-fluorophenyl)-5-hydroxy-4α-methyl-1,4,4α,5,6,7-hexahydrocyclopenta[f]indazol-5-yl]ethyl}benzaldehyde]
- maximal transactivation activity compared with maximal transrepression activity (human GR): maximal transactivation activity less then maximal transrepression activity
- IC50 [1]: < 1000 nM

SMILES: CC(C)(C)NC(=O)c1ccccc1CC[C@]1(O)CCC2=Cc3c(cnn3-c3ccc(F)cc3)C[C@@]21C [Example 62, N-(tert-butyl)-2-{2-[(4αS,5R)-1-(4-fluorophenyl)-5-hydroxy-4α-methyl-1,4,4α,5,6,7-hexahydrocyclopenta[f]indazol-5-yl]ethyl}benzamide]
- maximal transactivation activity compared with maximal transrepression activity (human GR): maximal transactivation activity less then maximal transrepression activity
- IC50 [1]: < 1000 nM

SMILES: C[C@]12Cc3cnn(-c4ccc(F)cc4)c3C=C1CC[C@@]2(O)CCc1ccccc1C(=O)NCC(F)(F)F [Example 64, 2-{2-[(4αS,5R)-1-(4-fluorophenyl)-5-hydroxy-4α-methyl-1,4,4α,5,6,7-hexahydrocyclopenta[f]indazol-5-yl]ethyl}-N-(2,2,2-trifluoroethyl)benzamide]
- maximal transactivation activity compared with maximal transrepression activity (human GR): maximal transactivation activity less then maximal transrepression activity
- IC50 [1]: < 1000 nM

SMILES: CC(C)(C)CNC(=O)c1c(F)cccc1CC[C@]1(O)CCC2=Cc3c(cnn3-c3ccc(F)cc3)C[C@@]21C [Example 55, N-(2,2-dimethylpropyl)-2-fluoro-6-{2-[(4αS,5R)-1-(4-fluorophenyl)-5-hydroxy-4α-methyl-1,4,4α,5,6,7-hexahydrocyclopenta[f]indazol-5-yl]ethyl}benzamide]
- maximal transactivation activity compared with maximal transrepression activity (human GR): maximal transactivation activity less then maximal transrepression activity
- IC50 [1]: < 1000 nM

SMILES: C[C@]12Cc3cnn(-c4ccc(F)cc4)c3C=C1CC[C@@]2(O)CCc1ccccc1C(=O)N1CC(=O)C1 [Example 156, 1-(2-{2-[(4αS,5R)-1-(4-fluorophenyl)-5-hydroxy-4α-methyl-1,4,4α,5,6,7-hexahydrocyclopenta[f]indazol-5-yl]ethyl}benzoyl)azetidin-3-one]
- maximal transactivation activity compared with maximal transrepression activity (human GR): maximal transactivation activity less then maximal transrepression activity
- IC50 [1]: < 1000 nM

SMILES: C[C@]12Cc3cnn(-c4ccc(F)cc4)c3C=C1CC[C@@]2(O)CCc1ccccc1O [Example 16, (4αS,5R)-1-(4-fluorophenyl)-5-[2-(2-hydroxyphenyl)ethyl]-4α-methyl-1,4,4α,5,6,7-hexahydrocyclopenta[f]indazol-5-ol]
- maximal transactivation activity compared with maximal transrepression activity (human GR): maximal transactivation activity less then maximal transrepression activity
- IC50 [1]: < 1000 nM

SMILES: C[C@]12Cc3cnn(-c4ccc(F)cc4)c3C=C1CC[C@@]2(O)CCc1ccc(C(F)(F)F)cc1C(N)=O [Example 175, 2-{2-[(4αS,5R)-1-(4-fluorophenyl)-5-hydroxy-4α-methyl-1,4,4α,5,6,7-hexahydrocyclopenta[f]indazol-5-yl]ethyl}-5-(trifluoromethyl)benzamide]
- maximal transactivation activity compared with maximal transrepression activity (human GR): maximal transactivation activity less then maximal transrepression activity
- IC50 [1]: < 1000 nM

SMILES: CNC(=O)Cc1ccccc1CC[C@]1(O)CCC2=Cc3c(cnn3-c3ccc(F)cc3)C[C@@]21C [Example 23, 2-(2-{2-[(4αS,5R)-1-(4-fluorophenyl)-5-hydroxy-4α-methyl-1,4,4α,5,6,7-hexahydrocyclopenta[f]indazol-5-yl]ethyl}phenyl)-N-methylacetamide]
- maximal transactivation activity compared with maximal transrepression activity (human GR): maximal transactivation activity less then maximal transrepression activity
- IC50 [1]: < 1000 nM

SMILES: CCOC(=O)Nc1ccc(F)cc1CC[C@]1(O)CCC2=Cc3c(cnn3-c3ccc(F)cc3)C[C@@]21C [Example 125, ethyl (4-fluoro-2-{2-[(4αS,5R)-1-(4-fluorophenyl)-5-hydroxy-4α-methyl-1,4,4α,5,6,7-hexahydrocyclopenta[f]indazol-5-yl]ethyl}phenyl)carbamate]
- maximal transactivation activity compared with maximal transrepression activity (human GR): maximal transactivation activity less then maximal transrepression activity
- IC50 [1]: < 1000 nM
